The source of these data is patent US10526370B2 (priority 2015, dated 2020).

The nature of the data set: general procedure: Fmoc solid-phase peptide synthesis; Fmoc-Met-Rink amide MBHA resin; HBTU. Particulars: whole synthesis, scale of the general procedure 2 mmol.

As for Arg-Trp-Arg-Asn-Met, the “final purity (method not given)” value was over 98%.
